Measured values: publication doi:10.1101/491779
These are yes or no findings as the source states them, for the method shown. Binding seen in cells or lysates may run through a third protein. These calls come from enrichment with a bait or labelling near it, and not all partners need be listed. Tags and fused reporters may be left off the sequences shown.

The chains behind the UniProt entries cited, without tags or fusion partners.
UniProt P20700: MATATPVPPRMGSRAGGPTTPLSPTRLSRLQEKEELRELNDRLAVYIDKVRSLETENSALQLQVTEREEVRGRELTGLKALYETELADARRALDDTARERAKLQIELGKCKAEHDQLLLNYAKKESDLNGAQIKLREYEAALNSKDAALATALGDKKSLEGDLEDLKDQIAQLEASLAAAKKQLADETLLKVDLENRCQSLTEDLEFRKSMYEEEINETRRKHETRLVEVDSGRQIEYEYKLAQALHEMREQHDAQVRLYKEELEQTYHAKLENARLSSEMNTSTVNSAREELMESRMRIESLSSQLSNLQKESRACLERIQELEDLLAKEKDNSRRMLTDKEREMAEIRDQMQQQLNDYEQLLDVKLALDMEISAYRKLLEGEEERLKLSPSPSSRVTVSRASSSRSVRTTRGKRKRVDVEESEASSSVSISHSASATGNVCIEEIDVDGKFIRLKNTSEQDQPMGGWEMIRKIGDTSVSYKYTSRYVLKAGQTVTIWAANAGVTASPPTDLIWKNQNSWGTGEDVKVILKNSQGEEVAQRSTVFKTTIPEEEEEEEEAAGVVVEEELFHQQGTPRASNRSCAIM
UniProt Q13263: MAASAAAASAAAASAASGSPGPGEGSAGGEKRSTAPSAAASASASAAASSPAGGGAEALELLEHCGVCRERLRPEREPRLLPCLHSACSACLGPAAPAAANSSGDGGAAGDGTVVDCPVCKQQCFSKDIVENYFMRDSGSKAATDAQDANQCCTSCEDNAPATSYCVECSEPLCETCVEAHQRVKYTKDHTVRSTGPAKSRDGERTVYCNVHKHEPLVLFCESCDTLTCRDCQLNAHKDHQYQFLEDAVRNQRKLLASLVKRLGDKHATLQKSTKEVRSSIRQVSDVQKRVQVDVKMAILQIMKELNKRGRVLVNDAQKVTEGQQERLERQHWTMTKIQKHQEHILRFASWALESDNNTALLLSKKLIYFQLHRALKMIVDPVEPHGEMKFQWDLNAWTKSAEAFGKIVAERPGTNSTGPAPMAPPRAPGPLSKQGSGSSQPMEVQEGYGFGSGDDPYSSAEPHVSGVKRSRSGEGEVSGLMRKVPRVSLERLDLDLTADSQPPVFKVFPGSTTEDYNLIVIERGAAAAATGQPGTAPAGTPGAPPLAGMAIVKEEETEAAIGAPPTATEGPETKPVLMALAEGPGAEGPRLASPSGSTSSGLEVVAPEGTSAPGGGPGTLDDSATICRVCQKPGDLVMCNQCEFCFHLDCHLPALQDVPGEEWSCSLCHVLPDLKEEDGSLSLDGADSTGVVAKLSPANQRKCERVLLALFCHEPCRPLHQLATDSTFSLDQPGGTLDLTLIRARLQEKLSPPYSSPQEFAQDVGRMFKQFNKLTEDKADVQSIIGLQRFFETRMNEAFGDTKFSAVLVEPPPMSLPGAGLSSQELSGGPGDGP

T1: FLAG-HA-tagged full length C11orf46 (human) (UniProt Q8N8R7)
T1 sequence: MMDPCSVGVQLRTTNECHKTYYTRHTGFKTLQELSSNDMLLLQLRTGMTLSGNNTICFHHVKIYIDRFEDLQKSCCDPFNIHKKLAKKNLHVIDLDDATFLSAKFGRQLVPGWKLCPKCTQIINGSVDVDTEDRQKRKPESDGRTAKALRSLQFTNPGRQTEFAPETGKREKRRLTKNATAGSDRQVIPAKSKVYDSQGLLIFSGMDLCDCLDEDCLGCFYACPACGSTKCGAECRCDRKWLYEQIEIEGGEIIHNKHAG


Biological target: T1, FLAG-HA-tagged full length C11orf46 (human)
Assay: affinity purification with mass spectrometry

binding | Molecule
binds | LMNB1 (endogenous, HEK293) (from UniProt P20700 1-586)
binds | LAP2A (endogenous, HEK293) (protein, UniProt P42166 1-694) MPEFLEDPSVLTKDKLKSELVANNVTLPAGEQRKDVYVQLYLQHLTARNRPPLPAGTNSKGPPDFSSDEEREPTPVLGSGAAAAGRSRAAVGRKATKKTDKPRQEDKDDLDVTELTNEDLLDQLVKYGVNPGPIVGTTRKLYEKKLLKLREQGTESRSSTPLPTISSSAENTRQNGSNDSDRYSDNEEGKKKEHKKVKSTRDIVPFSELGTTPSGGGFFQGISFPEISTRPPLGSTELQAAKKVHTSKGDLPREPLVATNLPGRGQLQKLASERNLFISCKSSHDRCLEKSSSSSSQPEHSAMLVSTAASPSLIKETTTGYYKDIVENICGREKSGIQPLCPERSHISDQSPLSSKRKALEESESSQLISPPLAQAIRDYVNSLLVQGGVGSLPGTSNSMPPLDVENIQKRIDQSKFQETEFLSPPRKVPRLSEKSVEERDSGSFVAFQNIPGSELMSSFAKTVVSHSLTTLGLEVAKQSQHDKIDASELSFPFHESILKVIEEEWQQVDRQLPSLACKYPVSSREATQILSVPKVDDEILGFISEATPLGGIQAASTESCNQQLDLALCRAYEAAASALQIATHTAFVAKAMQADISQAAQILSSDPSRTHQALGILSKTYDAASYICEAAFDEVKMAAHTMGNATVGRRYLWLKDCKINLASKNKLASTPFKGGTLFGGEVCKVIKKRGNKH

The remaining lines, values behind:

Molecule | binding
KAP1 (endogenous, HEK293) (from UniProt Q13263 1-835) | binds
MCAF1 (endogenous, HEK293) (protein, UniProt Q6VMQ6 1-1270) MDSLEEPQKKVFKARKTMRVSDRQQLEAVYKVKEELLKTDVKLLNGNHENGDLDPTSPLENMDYIKDKEEVNGIEEICFDPEGSKAEWKETPCILSVNVKNKQDDDLNCEPLSPHNITPEPVSKLPAEPVSGDPAPGDLDAGDPASGVLASGDSTSGDPTSSEPSSSDAASGDATSGDAPSGDVSPGDATSGDATADDLSSGDPTSSDPIPGEPVPVEPISGDCAADDIASSEITSVDLASGAPASTDPASDDLASGDLSSSELASDDLATGELASDELTSESTFDRTFEPKSVPVCEPVPEIDNIEPSSNKDDDFLEKNGADEKLEQIQSKDSLDEKNKADNNIDANEETLETDDTTICSDRPPENEKKVEEDIITELALGEDAISSSMEIDQGEKNEDETSADLVETINENVIEDNKSENILENTDSMETDEIIPILEKLAPSEDELTCFSKTSLLPIDETNPDLEEKMESSFGSPSKQESSESLPKEAFLVLSDEEDISGEKDESEVISQNETCSPAEVESNEKDNKPEEEEQVIHEDDERPSEKNEFSRRKRSKSEDMDNVQSKRRRYMEEEYEAEFQVKITAKGDINQKLQKVIQWLLEEKLCALQCAVFDKTLAELKTRVEKIECNKRHKTVLTELQAKIARLTKRFEAAKEDLKKRHEHPPNPPVSPGKTVNDVNSNNNMSYRNAGTVRQMLESKRNVSESAPPSFQTPVNTVSSTNLVTPPAVVSSQPKLQTPVTSGSLTATSVLPAPNTATVVATTQVPSGNPQPTISLQPLPVILHVPVAVSSQPQLLQSHPGTLVTNQPSGNVEFISVQSPPTVSGLTKNPVSLPSLPNPTKPNNVPSVPSPSIQRNPTASAAPLGTTLAVQAVPTAHSIVQATRTSLPTVGPSGLYSPSTNRGPIQMKIPISAFSTSSAAEQNSNTTPRIENQTNKTIDASVSKKAADSTSQCGKATGSDSSGVIDLTMDDEESGASQDPKKLNHTPVSTMSSSQPVSRPLQPIQPAPPLQPSGVPTSGPSQTTIHLLPTAPTTVNVTHRPVTQVTTRLPVPRAPANHQVVYTTLPAPPAQAPLRGTVMQAPAVRQVNPQNSVTVRVPQTTTYVVNNGLTLGSTGPQLTVHHRPPQVHTEPPRPVHPAPLPEAPQPQRLPPEAASTSLPQKPHLKLARVQSQNGIVLSWSVLEVDRSCATVDSYHLYAYHEEPSATVPSQWKKIGEVKALPLPMACTLTQFVSGSKYYFAVRAKDIYGRFGPFCDPQSTDVISSTQSS | binds
